Experimental data as given in PMC12497838.
These are yes or no findings as the source states them, for the method shown. In cells and extracts the contact can be indirect. Some results given as binding are weak or reduced against the parent protein; the word gives no strength.

By UniProt entry, the sequences of proteins in these tests, tags left out.
UniProt A0A8I3MKE1: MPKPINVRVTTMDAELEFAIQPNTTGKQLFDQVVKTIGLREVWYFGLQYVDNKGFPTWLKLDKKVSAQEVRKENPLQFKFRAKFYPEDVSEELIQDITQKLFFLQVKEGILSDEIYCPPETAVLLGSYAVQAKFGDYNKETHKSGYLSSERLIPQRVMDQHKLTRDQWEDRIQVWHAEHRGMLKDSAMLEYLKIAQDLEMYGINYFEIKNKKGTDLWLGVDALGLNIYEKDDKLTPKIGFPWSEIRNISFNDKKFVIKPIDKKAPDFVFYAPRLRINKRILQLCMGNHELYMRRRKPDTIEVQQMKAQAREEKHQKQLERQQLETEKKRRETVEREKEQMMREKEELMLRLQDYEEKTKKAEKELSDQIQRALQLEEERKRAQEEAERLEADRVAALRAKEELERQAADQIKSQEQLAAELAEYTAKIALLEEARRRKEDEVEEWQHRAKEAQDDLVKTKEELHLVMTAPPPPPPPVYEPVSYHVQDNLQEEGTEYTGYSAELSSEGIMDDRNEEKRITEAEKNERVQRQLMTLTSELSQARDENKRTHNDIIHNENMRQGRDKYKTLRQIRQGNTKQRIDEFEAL

Target: T1, podocalyxin (PDX) (dog (endogenous in MDCK)) (UniProt Q52S86)
T1 sequence (chain, heavily glycosylated with both N- and O-linked glycans): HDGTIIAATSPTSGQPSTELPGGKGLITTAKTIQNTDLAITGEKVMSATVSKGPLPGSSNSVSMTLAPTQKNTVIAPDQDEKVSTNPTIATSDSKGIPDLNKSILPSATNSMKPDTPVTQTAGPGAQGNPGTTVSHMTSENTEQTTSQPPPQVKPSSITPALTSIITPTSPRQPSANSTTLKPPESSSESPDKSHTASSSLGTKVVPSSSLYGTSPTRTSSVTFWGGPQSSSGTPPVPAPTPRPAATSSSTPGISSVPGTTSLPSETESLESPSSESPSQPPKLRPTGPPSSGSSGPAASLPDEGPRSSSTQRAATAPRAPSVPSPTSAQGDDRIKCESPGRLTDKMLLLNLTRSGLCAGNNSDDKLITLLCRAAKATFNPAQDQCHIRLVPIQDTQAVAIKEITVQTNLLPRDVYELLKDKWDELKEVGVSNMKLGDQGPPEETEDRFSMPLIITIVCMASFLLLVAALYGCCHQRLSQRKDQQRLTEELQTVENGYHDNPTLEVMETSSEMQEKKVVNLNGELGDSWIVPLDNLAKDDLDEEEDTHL
Assay: co-IP; polarized MDCK and MDCK-deltaTTL (TTL knockout) cells lysed in Mg2+ lysis buffer (pH 7.4; 100 mM NaCl; 20 mM Tris; 10 mM MgCl2; 5 mM EDTA; 2 mM DTT; 0.4% NP-40); anti-PDX antibodies/protein A-sepharose, 3 h at 4 °C; immunoblot with anti-ezrin; non-specific IgG beads as negative control

ezrin (from UniProt A0A8I3MKE1 1-586)
binding: binds
